Values of other authors, collected in US12564639B2, “Cationic nanostructures for intra-cartilage delivery of contrast agents and diagnostic uses thereof” (Northeastern University, priority 2019, dated 2026).
For at least one compound, name, drawing or mass did not settle the structure.

Settings: two doses of 40 mg within 10 days of ACL rupture; cited from earlier work

Structure (SMILES): CC1(C)O[C@@H]2C[C@H]3[C@@H]4CCC5=CC(=O)C=C[C@]5(C)[C@@]4(F)[C@@H](O)C[C@]3(C)[C@]2(C(=O)CO)O1 [TCA, triamcinolone acetonide]
- injury induced early chondral changes: able to prevent injury induced early chondral changes
